This is an account of results in article PMC11331505.

Amino acid sequences for entries named in this document (tags omitted). Residues count along the entry.
UniProt P51858, 1-100: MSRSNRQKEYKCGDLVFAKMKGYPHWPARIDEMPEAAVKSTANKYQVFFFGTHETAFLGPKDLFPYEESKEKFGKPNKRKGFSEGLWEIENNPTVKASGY
UniProt P0A7G6, 2-353: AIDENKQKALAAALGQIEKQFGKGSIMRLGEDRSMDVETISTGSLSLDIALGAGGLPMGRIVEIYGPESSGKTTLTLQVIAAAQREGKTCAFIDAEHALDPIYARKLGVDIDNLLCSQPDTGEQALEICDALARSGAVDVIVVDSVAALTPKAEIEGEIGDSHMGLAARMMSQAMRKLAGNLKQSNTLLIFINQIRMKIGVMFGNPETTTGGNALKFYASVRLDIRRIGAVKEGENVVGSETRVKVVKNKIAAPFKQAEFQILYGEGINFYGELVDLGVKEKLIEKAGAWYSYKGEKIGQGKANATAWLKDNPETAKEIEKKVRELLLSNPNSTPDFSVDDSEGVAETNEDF

The term Kd denotes the constant that tells how readily two partners part at equilibrium.

In data set [1] the target is HDGF (human) (UniProt P51858). As to the kind of experiment: PIFQ (Cy3 fluorescence quenching). To be noted: 1 nM DNA, N.D.; HDGF assays: 46 mM NaCl, 0.9 mM KCl, 3.3 mM Na2HPO4, 0.66 mM KH2PO4, pH 7.4; at least 1 h on ice; 1-10 nM Cy3 DNA, 10 pM-100 nM protein; RecA dsDNA control at pH 7.5; recombinant protein; residues 1-240; label: Cy3; single-stranded DNA.
Data set [2] concerns the target HDGF PWWP domain (human) (UniProt P51858). Put plainly: PIFQ (Cy3 fluorescence quenching). The conditions noted are these: 1 nM DNA, approximation model; HDGF assays: 46 mM NaCl, 0.9 mM KCl, 3.3 mM Na2HPO4, 0.66 mM KH2PO4, pH 7.4; at least 1 h on ice; 1-10 nM Cy3 DNA, 10 pM-100 nM protein; RecA dsDNA control at pH 7.5; recombinant protein; residues 1-100; label: Cy3; single-stranded DNA.

The subject of data set [3] is HDGF PWWP domain + HDGF C140 domain. As to the kind of experiment: PIFQ (Cy3 fluorescence quenching). The conditions noted are these: 1 nM DNA, premixed, minimal decrease, attributed to PWWP nonspecific binding; HDGF assays: 46 mM NaCl, 0.9 mM KCl, 3.3 mM Na2HPO4, 0.66 mM KH2PO4, pH 7.4; at least 1 h on ice; 1-10 nM Cy3 DNA, 10 pM-100 nM protein; RecA dsDNA control at pH 7.5; recombinant protein; label: 5' Cy3.

Data set [4] addresses E. coli RecA (E. coli) (UniProt P0A7G6). Put plainly: PIFE (Cy3 fluorescence enhancement). To be noted: 1 nM DNA, no detectable change at pH 7.5; HDGF assays: 46 mM NaCl, 0.9 mM KCl, 3.3 mM Na2HPO4, 0.66 mM KH2PO4, pH 7.4; at least 1 h on ice; 1-10 nM Cy3 DNA, 10 pM-100 nM protein; RecA dsDNA control at pH 7.5; label: Cy3.

For some of these results: A negative result means that nothing was seen under these conditions. For some of these results: The comparison behind a weaker result is the experiment's own reference, which may not be listed here. For some of these results: The exact form of at least one protein or probe is not confirmed.

Turning to TTCAAGACCAGCCTG [15 nt SMYD1 ssDNA], the binding result in data set [1] is “no binding”. In addition, the Kd in data set [2] was determined as 0.016 µM. “TTTTTTTTTTTTTTT (double strand) [poly(T-A)15 dsDNA]”: the binding result in data set [3] is listed as “binds more weakly”. Consider “TTTTTTTTTTTTTTTTTTTTTTTTTTTTTTTTTTTTTTTT (double strand) [poly(T-A)40 dsDNA]”, for which the binding result in data set [4] is recorded as “no binding”.
